Measured values reported in paper PMC12405659.
Results are given in words; binding and its absence hold for the method and conditions named. Binding seen in cells or lysates may run through a third protein. Some binding calls cover weakened binding; strength is not graded here.

Chains of the proteins cited; added tags and fusions are not shown. Residues count along the entry.
UniProt Q9Y5F8, residues 31-929: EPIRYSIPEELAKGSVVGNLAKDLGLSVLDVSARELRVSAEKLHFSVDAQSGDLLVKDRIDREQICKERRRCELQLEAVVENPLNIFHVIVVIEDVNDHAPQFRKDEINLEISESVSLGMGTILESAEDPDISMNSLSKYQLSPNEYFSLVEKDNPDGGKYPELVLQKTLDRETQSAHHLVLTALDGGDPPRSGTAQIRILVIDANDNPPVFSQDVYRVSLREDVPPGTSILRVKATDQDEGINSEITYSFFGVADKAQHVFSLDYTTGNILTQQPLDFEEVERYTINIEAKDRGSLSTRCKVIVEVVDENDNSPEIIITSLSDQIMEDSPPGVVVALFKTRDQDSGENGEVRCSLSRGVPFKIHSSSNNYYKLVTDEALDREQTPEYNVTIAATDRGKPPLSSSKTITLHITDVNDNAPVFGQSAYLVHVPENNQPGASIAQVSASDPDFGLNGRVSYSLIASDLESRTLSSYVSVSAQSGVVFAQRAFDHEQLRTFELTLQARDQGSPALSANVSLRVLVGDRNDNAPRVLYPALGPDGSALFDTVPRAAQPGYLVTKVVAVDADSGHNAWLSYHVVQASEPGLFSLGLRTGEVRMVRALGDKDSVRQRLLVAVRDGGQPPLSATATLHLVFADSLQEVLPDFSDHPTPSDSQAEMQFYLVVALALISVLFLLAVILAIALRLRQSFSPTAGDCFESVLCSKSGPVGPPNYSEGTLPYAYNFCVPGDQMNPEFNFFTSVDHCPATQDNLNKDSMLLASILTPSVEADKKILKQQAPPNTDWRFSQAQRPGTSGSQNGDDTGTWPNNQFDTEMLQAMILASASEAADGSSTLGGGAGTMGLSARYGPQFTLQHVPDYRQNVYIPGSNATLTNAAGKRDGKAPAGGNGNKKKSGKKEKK
UniProt P01106: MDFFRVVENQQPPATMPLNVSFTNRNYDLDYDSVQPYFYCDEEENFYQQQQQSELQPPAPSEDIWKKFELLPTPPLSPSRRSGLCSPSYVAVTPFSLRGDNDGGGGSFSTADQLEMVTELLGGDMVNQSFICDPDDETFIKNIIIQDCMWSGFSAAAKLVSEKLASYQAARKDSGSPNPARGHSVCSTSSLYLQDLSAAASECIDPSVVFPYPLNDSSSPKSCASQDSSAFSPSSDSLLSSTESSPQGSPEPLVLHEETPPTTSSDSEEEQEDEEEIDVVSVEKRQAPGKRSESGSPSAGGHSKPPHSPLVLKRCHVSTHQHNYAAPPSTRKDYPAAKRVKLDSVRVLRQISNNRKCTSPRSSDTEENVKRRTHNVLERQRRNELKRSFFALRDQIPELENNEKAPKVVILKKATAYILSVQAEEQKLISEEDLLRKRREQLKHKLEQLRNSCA
UniProt P13010: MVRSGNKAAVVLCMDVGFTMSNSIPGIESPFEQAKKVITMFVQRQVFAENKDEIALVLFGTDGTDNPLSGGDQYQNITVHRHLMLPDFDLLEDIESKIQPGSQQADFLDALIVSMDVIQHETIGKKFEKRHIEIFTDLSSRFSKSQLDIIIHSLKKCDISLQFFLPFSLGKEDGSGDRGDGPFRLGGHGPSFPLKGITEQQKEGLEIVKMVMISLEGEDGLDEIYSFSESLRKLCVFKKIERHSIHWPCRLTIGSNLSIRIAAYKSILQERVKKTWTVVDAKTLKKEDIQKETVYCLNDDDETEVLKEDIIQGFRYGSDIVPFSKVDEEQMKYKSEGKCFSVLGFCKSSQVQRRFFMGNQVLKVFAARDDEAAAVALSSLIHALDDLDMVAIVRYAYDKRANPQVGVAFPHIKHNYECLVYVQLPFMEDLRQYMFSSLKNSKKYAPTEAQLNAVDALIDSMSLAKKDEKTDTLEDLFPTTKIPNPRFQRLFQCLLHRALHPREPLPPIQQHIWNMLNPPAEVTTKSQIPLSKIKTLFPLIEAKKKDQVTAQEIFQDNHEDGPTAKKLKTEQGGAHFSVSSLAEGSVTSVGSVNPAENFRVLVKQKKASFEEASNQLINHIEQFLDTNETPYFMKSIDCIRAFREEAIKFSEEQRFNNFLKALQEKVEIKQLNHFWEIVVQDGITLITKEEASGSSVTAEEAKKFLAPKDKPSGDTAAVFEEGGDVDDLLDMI

Legend:
PCDHGB7-flag = PCDHGB7-flag (UniProt Q9Y5F8); assay: co-IP; lysates of TNBC cells transfected with empty vector or PCDHGB7-flag; anti-flag, anti-MYC or control IgG; protein A/G-agarose beads; immunoblot
[1] = target: PCDHGB7 in Hs578T cells (PLA) (UniProt Q9Y5F8); assay: proximity ligation; PLA in Hs578T cells

Row | Substance | binding (PCDHGB7-flag) | binding [1]
1 | MYC (from UniProt P01106 1-454) | no binding | –
2 | x‐ray repair cross‐complementary 5 (XRCC5) (from UniProt P13010 1-732) | – | binds
